The list does not hold the whole screen: it gathers tests that were run many times, whatever their T/C, doses with no T/C, and many T/C values between a quarter and a half above the control. Further doses and runs are listed elsewhere. T/C gives the treated animals as a percentage of the vehicle group. Some doses have a count of surviving animals in place of a T/C: the source files T/C as zero there, which appears to mark a toxic dose or a test without result, not a measured value. Some doses without a T/C left all or most animals alive at the check, yet need not have been tolerated: the source hardly ever lists a survival T/C far under the control, and the zero likely stands for such cases as well. Survivors were counted at the toxicity check, usually on the fifth day, unless a day is given; later deaths do not show. Schedules are NCI's codes, taken here to give the interval after Q, in days (D) or hours (H), and the number of doses after X. Some schedules carry Z or #; the key to these is not given. Some entries hold several experiments; the results are listed from low to high. Where survival is the endpoint, the PubChem record calls one and a half times the control and up active, and a quarter to a half above the control has no call in these data; cut-offs in other NCI protocols can differ. Some T/C values are followed by the survivors on the day toxicity was checked, most often the fifth; without a count, all were alive then.
Tested on: P335 leukemia ip, BDF1 mice, survival T/C %
Assay: NCI In Vivo Anticancer Drug Screen. Data for tumor model P335 Leukemia (intraperitoneal) in B6D2F1 (BDF1) mice
Conditions: T/C endpoint: mean survival time, higher T/C = longer survival
Method: The antitumor activity of compounds was measured in mice bearing transplantable tumors. Survival or tumor size were measured and the results are expressed as the measurement made in the treated group (T) divided by the measurement made in the vehicle treated control group (C). The tumor model used in this assay is P335 Leukemia (intraperitoneal) in B6D2F1 (BDF1) mice

[1] = dose: 0.06 mg/kg/injection, schedule: Q01DX Z (ip), vehicle: saline
[2] = dose: 0.12 mg/kg/injection, schedule: Q01DX Z (ip), vehicle: saline
[3] = dose: 0.25 mg/kg/injection, schedule: Q01DX Z (ip), vehicle: saline
[4] = dose: 0.5 mg/kg/injection, schedule: Q01DX Z (ip), vehicle: saline
[5] = dose: 2.5 mg/kg/injection, schedule: Q01DX Z (ip), vehicle: carboxymethylcellulose (CMC)
[6] = dose: 5.0 mg/kg/injection, schedule: Q01DX Z (ip), vehicle: carboxymethylcellulose (CMC)
[7] = dose: 20.0 mg/kg/injection, schedule: Q01DX Z (ip), vehicle: carboxymethylcellulose (CMC)
[8] = dose: 40.0 mg/kg/injection, schedule: Q01DX Z (ip), vehicle: carboxymethylcellulose (CMC)

COc1cc2c(c(OC)c1OC)-c1ccc(OC)c(=O)cc1[C@@H](NC(C)=O)CC2
survivor count [1]: 2 of 6 | survivor count [2]: 0 of 6 | survivor count [3]: 0 of 6 | survivor count [4]: 0 of 6 | survivor count (dose: 500.0 micrograms/kg/injection, schedule: Q01DX Z (ip), vehicle: saline): 6 of 6

C[C@@H]1C[C@@H]([C@H](O)CC2CC(=O)NC(=O)C2)C(=O)[C@@H](C)C1
survivor count (dose: 100.0 mg/kg/injection, schedule: Q01DX Z (ip), vehicle: water): 1 of 6 | survivor count (dose: 200.0 mg/kg/injection, schedule: Q01DX Z (ip), vehicle: water): 0 of 6

c1ccc(CNc2ncnc3[nH]ncc23)cc1
survivor count (dose: 4.0 mg/kg/injection, schedule: Q01DX Z (ip), vehicle: carboxymethylcellulose (CMC)): 6 of 6 | survivor count (dose: 8.0 mg/kg/injection, schedule: Q01DX Z (ip), vehicle: carboxymethylcellulose (CMC)): 6 of 6 | survivor count (dose: 16.0 mg/kg/injection, schedule: Q01DX Z (ip), vehicle: carboxymethylcellulose (CMC)): 6 of 6 | survivor count (dose: 62.5 mg/kg/injection, schedule: Q01DX Z (ip), vehicle: carboxymethylcellulose (CMC)): 3 of 6 | survivor count (dose: 125.0 mg/kg/injection, schedule: Q01DX Z (ip), vehicle: carboxymethylcellulose (CMC)): 0 of 6 | survivor count (dose: 250.0 mg/kg/injection, schedule: Q01DX Z (ip), vehicle: carboxymethylcellulose (CMC)): 0 of 6

O=P1(N(CCCl)CCCl)NCCCO1 (stereo unspecified)
T/C (dose: 12.5 mg/kg/injection, schedule: Q01DX Z (ip), vehicle: saline): 118, 125, 127, 138 % of control | T/C (dose: 25.0 mg/kg/injection, schedule: Q01DX Z (ip), vehicle: saline): 161, 245, 301, 307 % of control | T/C (dose: 50.0 mg/kg/injection, schedule: Q01DX Z (ip), vehicle: saline): 152, 171, 253, 305 % of control | T/C (dose: 100.0 mg/kg/injection, schedule: Q01DX Z (ip), vehicle: saline): 129 % of control | survivor count (dose: 200.0 mg/kg/injection, schedule: Q01DX Z (ip), vehicle: saline): 1 of 6

CC(=O)O[C@]1(C(C)=O)CC[C@H]2[C@@H]3C[C@H](C)C4=CC(=O)C=C[C@]4(C)[C@@]3(F)[C@@H](O)C[C@@]21C
survivor count (dose: 10.0 mg/kg/injection, schedule: Q01DX Z (sc), vehicle: steroid suspending solution): 6 of 6 | survivor count (dose: 40.0 mg/kg/injection, schedule: Q01DX Z (sc), vehicle: steroid suspending solution): 6 of 6 | survivor count (dose: 80.0 mg/kg/injection, schedule: Q01DX Z (sc), vehicle: steroid suspending solution): 6 of 6

[I][Hg][CH2]C1COC([CH2][Hg][I])CO1 (stereo unspecified)
survivor count (dose: 0.95 mg/kg/injection, schedule: Q01DX Z (ip), vehicle: carboxymethylcellulose (CMC)): 6 of 6 | survivor count (dose: 1.9 mg/kg/injection, schedule: Q01DX Z (ip), vehicle: carboxymethylcellulose (CMC)): 6 of 6 | T/C (dose: 7.5 mg/kg/injection, schedule: Q01DX Z (ip), vehicle: carboxymethylcellulose (CMC)): 131 % of control | survivor count (dose: 60.0 mg/kg/injection, schedule: Q01DX Z (ip), vehicle: carboxymethylcellulose (CMC)): 6 of 6 | survivor count (dose: 120.0 mg/kg/injection, schedule: Q01DX Z (ip), vehicle: carboxymethylcellulose (CMC)): 2 of 6

CN(Cc1cnc2nc(N)nc(N)c2n1)c1ccc(C(=O)N[C@@H](CCC(=O)O)C(=O)O)cc1
T/C (dose: 0.31 mg/kg/injection, schedule: Q01DX Z (ip), vehicle: other): 125 % of control | T/C (dose: 0.62 mg/kg/injection, schedule: Q01DX Z (ip), vehicle: other): 138, 140, 149, 161, 214 % of control | T/C (dose: 1.25 mg/kg/injection, schedule: Q01DX Z (ip), vehicle: other): 142, 152, 162, 171, 205 % of control | T/C (dose: 1.5 mg/kg/injection, schedule: Q01DX Z (ip), vehicle: other): 131 % of control [5 of 6 alive] | T/C (dose: 2.5 mg/kg/injection, schedule: Q01DX Z (ip), vehicle: other): 120 [5 of 6 alive], 140, 159, 163, 168 % of control | T/C (dose: 5.0 mg/kg/injection, schedule: Q01DX Z (ip), vehicle: other): 91, 117, 118 [5 of 6 alive], 119 % of control

N#[N+]c1cnc([O-])[nH]c1=O
T/C [5]: 114, 133, 140 % of control | survivor count [5]: 2 of 6 | T/C [6]: 135 % of control | survivor count [6]: 5 of 6 | survivor count [7]: 2 of 6 | survivor count [8]: 0 of 6

O=NN(CCCl)C(=O)NCCCl
survivor count (dose: 8.0 mg/kg/injection, schedule: Q01DX Z (ip), vehicle: saline): 6 of 6 | survivor count (dose: 32.0 mg/kg/injection, schedule: Q01DX Z (ip), vehicle: saline): 6 of 6 | survivor count (dose: 64.0 mg/kg/injection, schedule: Q01DX Z (ip), vehicle: saline): 6 of 6

NC(=O)c1cn(C2OC(CO)C(O)C2O)c2ncnc(N)c12 (stereo unspecified)
T/C (dose: 0.12 mg/kg/injection, schedule: Q01DX Z (ip), vehicle: carboxymethylcellulose (CMC)): 127 % of control | survivor count (dose: 1.0 mg/kg/injection, schedule: Q01DX Z (ip), vehicle: carboxymethylcellulose (CMC)): 4 of 6 | survivor count (dose: 2.0 mg/kg/injection, schedule: Q01DX Z (ip), vehicle: carboxymethylcellulose (CMC)): 3 of 6 | T/C (dose: 125.0 micrograms/kg/injection, schedule: Q01DX Z (ip), vehicle: carboxymethylcellulose (CMC)): 125 % of control

NC(Cc1ccc(N(CCCl)CCCl)cc1)C(=O)O (stereo unspecified)
survivor count (dose: 10.0 mg/kg/injection, schedule: Q01DX Z (ip), vehicle: carboxymethylcellulose (CMC)): 5 of 6 | survivor count [7]: 5 of 6 | survivor count [8]: 0 of 6

C[C@]12C=CC(=O)C=C1CC[C@@H]1[C@@H]2[C@@H](O)C[C@@]2(C)[C@H]1CC[C@]2(O)C(=O)CO
survivor count (dose: 62.5 mg/kg/injection, schedule: Q01DX Z (sc), vehicle: steroid suspending solution): 5 of 6 | survivor count (dose: 125.0 mg/kg/injection, schedule: Q01DX Z (sc), vehicle: steroid suspending solution): 6 of 6 | survivor count (dose: 250.0 mg/kg/injection, schedule: Q01DX Z (sc), vehicle: steroid suspending solution): 1 of 6 | survivor count (dose: 500.0 mg/kg/injection, schedule: Q01DX Z (sc), vehicle: steroid suspending solution): 2 of 6

O=C(Nc1ccc(C2=NCCN2)cc1)c1cccc(C(=O)Nc2ccc(C3=NCCN3)cc2)c1
survivor count (dose: 150.0 mg/kg/injection, schedule: Q01DX Z (ip), vehicle: carboxymethylcellulose (CMC)): 0 of 6

CC1CCOS(=O)O1 (stereo unspecified)
survivor count [6]: 6 of 6 | survivor count (dose: 160.0 mg/kg/injection, schedule: Q01DX Z (ip), vehicle: carboxymethylcellulose (CMC)): 0 of 6 | survivor count (dose: 320.0 mg/kg/injection, schedule: Q01DX Z (ip), vehicle: carboxymethylcellulose (CMC)): 0 of 6

C[C@]12CC[C@H](OC3OC(CO)C(O)C(O)C3O)C[C@H]1CC[C@@H]1[C@@H]2CC[C@]2(C)[C@@H](C3=CCOC3=O)CC[C@]12O (stereo partly specified)
survivor count (dose: 0.03 mg/kg/injection, schedule: Q01DX Z (ip), vehicle: saline): 6 of 6 | survivor count [1]: 6 of 6 | survivor count [2]: 5 of 6 and 6 of 6 | survivor count [3]: 2 of 6 and 5 of 6 | survivor count [4]: 6 of 6 | survivor count (dose: 1.0 mg/kg/injection, schedule: Q01DX Z (ip), vehicle: saline): 6 of 6 | survivor count (dose: 10.0 micrograms/kg/injection, schedule: Q01DX Z (ip), vehicle: saline): 6 of 6 | survivor count (dose: 20.0 micrograms/kg/injection, schedule: Q01DX Z (ip), vehicle: saline): 6 of 6 | survivor count (dose: 40.0 micrograms/kg/injection, schedule: Q01DX Z (ip), vehicle: saline): 6 of 6 | survivor count (dose: 80.0 micrograms/kg/injection, schedule: Q01DX Z (ip), vehicle: saline): 6 of 6

— PubChem BioAssay AID224 (DTP/NCI, 2004)
